No constants are given. Whether binding was seen depends on the method and setting. Some entries that bind do so weakly or less than the wild type.
Assays:
Mature Activin A (human) [1] = target: Mature Activin A (human) (UniProt P08476); assay: ELISA dose-response, coated antigen
[2] = target: Inhibin A (Homo sapiens (Human)) (UniProt P05111); assay: ELISA, coated antigen, >[…] over BSA
Latent Activin A (human) [3] = target: Latent Activin A (human) (UniProt P08476); assay: ELISA, coated antigen, >[…] over BSA
Mature Activin A (human) [4] = target: Mature Activin A (human) (UniProt P08476); assay: ELISA, coated antigen, >[…] over BSA
Mature Activin A (human) [5] = target: Mature Activin A (human) (UniProt P08476); assay: ELISA on plate-coated antigen, IgG titrated 1:3 from […], anti-human IgG-HRP, A450; panel 'Activin A'
[6] = target: Inhibin A (Homo sapiens (Human)) (UniProt P05111); assay: ELISA on plate-coated antigen, IgG titrated 1:3 from […], anti-human IgG-HRP, A450; panel 'Inhibin A' [continued]
Latent Activin A (human) [7] = target: Latent Activin A (human) (UniProt P08476); assay: ELISA on plate-coated antigen, IgG titrated 1:3 from […], anti-human IgG-HRP, A450; panel 'Latent Activin A' [continued]

By UniProt entry, the sequences of proteins in these tests, tags left out. Where a name states a change or a piece, a line headed by the entry shows the natural chain unless it says otherwise.
UniProt P08476: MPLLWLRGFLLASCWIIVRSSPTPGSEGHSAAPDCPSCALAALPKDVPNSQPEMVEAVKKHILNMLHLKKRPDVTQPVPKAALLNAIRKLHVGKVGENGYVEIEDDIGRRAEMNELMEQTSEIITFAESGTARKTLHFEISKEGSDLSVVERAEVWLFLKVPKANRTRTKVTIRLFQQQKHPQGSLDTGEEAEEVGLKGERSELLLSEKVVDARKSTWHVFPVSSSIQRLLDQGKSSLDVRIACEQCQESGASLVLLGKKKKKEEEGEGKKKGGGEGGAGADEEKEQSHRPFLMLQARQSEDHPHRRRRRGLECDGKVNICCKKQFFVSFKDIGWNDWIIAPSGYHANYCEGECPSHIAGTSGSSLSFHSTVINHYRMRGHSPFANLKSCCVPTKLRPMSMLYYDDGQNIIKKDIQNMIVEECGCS
UniProt P05111: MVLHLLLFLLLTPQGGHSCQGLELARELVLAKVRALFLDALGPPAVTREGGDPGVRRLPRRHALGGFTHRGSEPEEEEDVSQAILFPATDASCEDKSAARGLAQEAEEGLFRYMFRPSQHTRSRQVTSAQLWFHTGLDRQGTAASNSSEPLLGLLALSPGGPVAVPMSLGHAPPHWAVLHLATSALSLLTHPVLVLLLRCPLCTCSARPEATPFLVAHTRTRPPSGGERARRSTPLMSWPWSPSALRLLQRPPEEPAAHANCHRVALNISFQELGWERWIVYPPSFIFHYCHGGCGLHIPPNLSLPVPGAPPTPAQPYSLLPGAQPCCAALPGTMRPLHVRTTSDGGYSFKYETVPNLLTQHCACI

Row | Binder | binding (Mature Activin A (human) [1]) | binding [2] | binding (Latent Activin A (human) [3]) | binding (Mature Activin A (human) [4]) | binding (Mature Activin A (human) [5]) | binding [6] | binding (Latent Activin A (human) [7])
1 | AB843 (antibody, IgG1, V domains shown) VH: EVQLVQSGAEVKKPGASVKVSCKASGDTSSHSHIHWVRQAPGQGLEWMGWINPRSGATNYAQKLQGRGTMTTDPSTSTAYMELRSLRSDDTAVYYCARDRGGRTNGVGAFDIWGQGTMVTVSS VL: ESALTQPASVSGSPGQSITISCTGTSGDIGRYNYVSWYQQHPGKAPKLMIYEDIERPSGVSNRFSGSKSGNTASLTISGLQAEDEADYYCQVWDATLDLVFGGGTKLTVL | binds | binds | binds | binds | binds | binds | 
2 | AB731 (antibody, IgG1, V domains shown) VH: QVQLQQPGTELVKPGASVKLSCKASGYTFTSYWMHWVKQRPGQGLEWIGNINPSNGGTNYNEKFKSKATLTVDKSSSTAYMQLSSLTSEDSAVYYCSITTVVAYWYFDVWGTGTTVTVSS VL: ENVLTQSPAIMSASPGEKVTISCSASSSVSYMYWYQQKPGSSPKPWIFRTYNLASGVPARFSGSGSGTSYSLTISNMEAEDAATYYCQQRSSYPWTFGGGTKLEIK | binds |  |  |  | binds |  | binds
3 | AB340 (antibody, IgG1, V domains shown) VH: EVQLVESGGGLVQPGGSLRLSCAASGFTASRNYMSWVRQAPGKGLELVASISGSGDYTYYPDSVKGRFTISRDNAKNSLYLQMNSLRAEDTAVYYCARSPRGPRLLGYYYGMDVWGQGTTVTVSS VL: DIVMTQSPLSLPVTPGEPASISCRSSRSLVHGSGHNYLHWYLQKPGQSPQLLIYGASTRVAGVPDRFSGSGSGTDFTLKISRVEAEDVGVYYCMQGTQAPRTFGGGTKVEIK |  |  | binds | binds |  |  | 
4 | AB353 (antibody, IgG1, V domains shown) VH: QVQLQESGPGLVKPSQTLSLTCTVSGLSLSNAKMGVNWIRQPPGKGLEWIGYVSTTGTTDYNPSLKSRVTMSVDTSKNQFSLKVNSVTAADTAVYYCARAGYPDVWGKGTTVTVSS VL: EIVMTQSPATLSLSPGERATLSCRASQNVYTNLAWYQQKPGQAPRLLIYGASARASGIPARFSGSGSGTDFTLTISSLEPEDFAVYYCLQYGSSPPLFGGGTKVEIK |  |  | binds | binds |  |  | 
5 | AB439 (antibody, IgG1, V domains shown) VH: EVQLVQSGAEVKKPGASVKVSCKASGYTYTGYRISWVRQAPGQGLEWMGWIDPKSGRTNYAQKLQGRGTMTTDPSTSTAYMELRSLRSDDTAVYYCAREVKQWLVPGRGVYWFDPWGQGTLVTVSS VL: ESALTQPASVSGSPGQSITISCTGTNIGLRSVSWYQQHPGKAPKLMIYDTNIRSSGVSNRFSGSKSGNTASLTISGLQAEDEADYYCSSYTSSSTDVFGGGTKLTVL |  |  | binds | binds |  |  | 
6 | AB350 (antibody, IgG1, V domains shown) VH: QVQLQESGPGLVKPSQTLSLTCTVSGVSLSDARMGVNWIRQPPGKGLEWIGYVSTTGTTDYNPSLKSRVTMSVDTSKNQFSLKVNSVTAADTAVYYCARAGYPDVWGKGTLVTVSS VL: EIVMTQSPATLSLSPGERATLSCRASESVRSNLAWYQQKPGQAPRLLIYGASNRASGIPARFSGSGSGTDFTLTISSLEPEDFAVYYCQQYHTWPPWAFGGGTKVEIK |  |  | binds | binds |  |  | 
7 | AB352 (antibody, IgG1, V domains shown) VH: QVQLQESGPGLVKPSQTLSLTCTVSGFPLSTSRMGVNWIRQPPGKGLEWIGYINPSGATDYNPSLKSRVTMSVDTSKNQFSLKVNSVTAADTAVYYCARAGYPDVWGKGTTVTVSS VL: EIVMTQSPATLSLSPGERATLSCRASQSVSTHLAWYQQKPGQAPRLLIYDATNRATGIPARFSGSGSGTDFTLTISSLEPEDFAVYYCLQYTNYPWTFGGGTKVEIK |  |  | binds | binds |  |  | 
8 | AB432 (antibody, IgG1, V domains shown) VH: QVQLQESGPGLVKPSQTLSLTCTVSGVSLSNVRMGVNWIRQPPGKGLEWIGYVNPSGSTDYNPSLKSRVTMSVDTSKNQFSLKVNSVTAADTAVYYCARAGYPDVWGKGTLVTVSS VL: EIVMTQSPATLSLSPGERATLSCRASQSISSSQLAWYQQKPGQAPRLLIYGASTRATGIPARFSGSGSGTDFTLTISSLEPEDFAVYYCQQYNDRPRTFGGGTKVEIK |  |  | binds | binds |  |  | 
9 | AB326 (antibody, IgG1, V domains shown) VH: QVQLVQSGAEVKKPGASVKVSCKVSGYTFTSSAISWVRQAPGKGLEWMGGIYPGSGHTIYAQKFQGRVTMTEDTSTDTAYMELSSLKSEDTAVYYCAREGDIFVMDVWGLGTAVTVSS VL: DIQMTQSPSSVSASVGDRVTITCRASMDIRNDLAWYQQKPGKAPKLLIYDASKLETGVPSRFSGSGSGTDFTLTISSLQPEDFANYYCQQAKSFPPTFGGGTKVEIK |  | binds | binds | binds |  |  | 

— US20250270304A1
